Laboratory results as given in patent US20090117097A1 (Chugai, published 2009).
Numbering of substitutions follows the chain as printed. Results are given in words; binding and its absence hold for the method and conditions named. Some binding calls cover weakened binding; strength is not graded here.

B1: hVB22B p-z sc(Fv)2 (scFv)
scFv: QVQLVQSGPEVKKPGASVKVSCKASGYTFTNSWMNWVRQRPGKGLEWMGRIYPGDGETIYNGKFRVRVTITADESTSTAYMELSSLRSEDTAVYYCARGYDDYSFAYWGQGTTVTVSSGGGGSGGGGSGGGGSDIVMTQSALSLPVTPGEPASISCRSSKSLLHSNGNTYLYWFQQKPGQSPQLLIYRMSNLASGVPDRFSGSGSGTAFTLKISRVEAEDVGVYYCMQHIEYPFTFGQGTKLEIKGGGGSGGGGSGGGGSQVQLVQSGPEVKKPGASVKVSCKASGYTFTNSWMNWVRQRPGKGLEWMGRIYPGDGETIYNGKFRVRVTITADESTSTAYMELSSLRSEDTAVYYCARGYDDYSFAYWGQGTTVTVSSGGGGSGGGGSGGGGSDIVMTQSALSLPVTPGEPASISCRSSKSLLHSNGNTYLYWFQQKPGQSPQLLIYRMSNLASGVPDRFSGSGSGTAFTLKISRVEAEDVGVYYCMQHIEYPFTFGQGTKLEIK
B2: hVB22B g-e sc(Fv)2 (scFv)
scFv: B1 scFv with M48V, F174Y, Q175L, M308V, F434Y, Q435L
B3: hVB22B e sc(Fv)2 (scFv)
scFv: B1 scFv with V37I, M48I, T113L, F174Y, Q175L, V297I, M308I, T373L, F434Y, Q435L
B4: hVB22B u2-wz4 sc(Fv)2 (scFv)
scFv: B1 scFv with M48I, E82Q, A141P, Q175L, A208D, M308I, E342Q, A401P, Q435L, A468D
B5: hVB22B q-wz5 sc(Fv)2 (scFv)
scFv: B1 scFv with M48I, A141P, S181A, Q183R, M308I, A401P, S441A, Q443R
B6: anti-human Mp1 antibody VB22B (VB22B IgG) (antibody, V domains shown)
VH: QVQLQQSGPELVKPGASVKISCKASGYAFTNSWMNWVKQRPGKGLEWIGRIYPGDGETIYNGKFRVKATLTADKSSSTAYMDISSLTSEDSAVYFCARGYDDYSFAYWGQGTLVTVSA
VL: DIVMTQAAPSIPVTPGESVSISCRSSKSLLHSNGNTYLYWFLQRPGQSPQLLIYRMSNLASGVPDRFSGSGSGTAFTLRISRVEAEDVGVYYCMQHIEYPFTFGSGTKLEIK
notes: Mouse monoclonal IgG purified from hybridoma supernatant; They were cloned with primers complementary to the mouse IgG2b and kappa constant regions; also called murine antibody VB22B

Legend:
[1] = biological target: GST fusion protein containing MG10 (Gln213 to Ala231) of human Mp1 (human) (UniProt P40238); assay: adsorption to an MG10-GST fusion protein-immobilized affinity column
[2] = biological target: GST fusion protein containing MG10 (Gln213 to Ala231) of human Mp1 (human) (UniProt P40238); assay: Western blotting of GST fusion proteins
[3] = biological target: GST fusion protein containing MG10 (Gln213 to Ala231) of human Mp1 (human) (UniProt P40238); assay: Western blotting of GST fusion proteins (refers back to Example 1.8)

Row | Binder | binding [1] | binding [2] | binding [3]
1 | B1 | binds |  | 
2 | B2 | binds |  | 
3 | B3 | binds |  | 
4 | B4 | binds |  | 
5 | B5 | binds |  | 
6 | B6 |  | binds | binds
